The target of assay [1] is GST-p53, purified, bacterially produced (UniProt P04637). The experiment in a line: condition: only p53 precipitated with monoclonal antibody Ab3 directed at amino acids 212–217 of p53; co-IP; purified GST-p53 incubated with purified His-IκBα in IP buffer; p53 precipitated with monoclonal antibody Ab3 (amino acids 212-217 in the DNA binding core of p53) and protein A/G beads; Western blot for IκBα; both purified. For orientation: In western blotting, separated proteins are transferred to a membrane and probed.

Protein sequences, listed by entry. Tags and fused reporters are not part of them.
UniProt P25963: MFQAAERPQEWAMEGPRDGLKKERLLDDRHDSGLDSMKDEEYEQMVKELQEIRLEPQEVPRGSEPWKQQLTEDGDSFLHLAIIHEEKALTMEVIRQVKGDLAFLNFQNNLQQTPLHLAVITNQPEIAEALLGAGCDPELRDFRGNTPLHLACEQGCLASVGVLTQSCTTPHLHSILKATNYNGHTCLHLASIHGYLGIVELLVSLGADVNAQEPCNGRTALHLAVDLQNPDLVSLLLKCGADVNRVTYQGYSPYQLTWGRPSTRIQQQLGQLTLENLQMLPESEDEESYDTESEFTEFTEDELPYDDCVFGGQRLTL

Assay [2] addresses endogenous wild-type p53 of A2085 melanoma cells (human (endogenous in A2085 melanoma cells)) (UniProt P04637). The experiment in a line: co-IP; extracts of A2085 cells (stably transfected with HA-ΔA5-IκBα or vector) irradiated 30" with UVB and harvested 4 hrs later; immunoprecipitation with anti-p53 Ab2 or polyclonal anti-HA; Western blot with anti-IκBα (C-terminus) or anti-p53 Ab3.

In assay [3] the target is GST-p53, purified, bacterially produced (UniProt P04637). The experiment in a line: pull-down; data not shown: COS cell lysate with wild-type IκBα co-precipitated with GST-p53; only the target purified.
The target in assay [4] is wild-type p53 synthesized in rabbit reticulocyte lysate (UniProt P04637). The experiment in a line: co-IP; unpublished observations: reticulocyte lysate p53 and IκBα alleles precipitated with the p53 antibody Ab2.
Assay [5] addresses wild-type IκBα synthesized in rabbit reticulocyte lysate (UniProt P25963). The experiment in a line: co-IP; p53 and IκBα alleles separately synthesized in rabbit reticulocyte lysate, 35S-labelled; 10 μl of lysates in 100 μl IP buffer, 2 hours at 4°C; precipitated with rabbit polyclonal antiserum to the C-terminus of IκBα and protein G plus/A beads; autoradiography, gel densitometry.

Results are given in words; binding and its absence hold for the method and conditions named. For some assays here: In cells and extracts the contact can be indirect. Some entries that bind do so weakly or less than the wild type.

Take “6xHis-tagged IκBα (His-IκBα), purified, bacterially produced (from UniProt P25963 1-317)”: the binding entry in assay [1] is recorded as “no binding”.

For “endogenous wild-type IκBα of A2085 melanoma cells (from UniProt P25963 1-317)”, the binding result in assay [2] is on record as “binds”.

Take “wild-type IκBα expressed in COS cells (from UniProt P25963 1-317)”: the binding result in assay [3] is “binds”.

For the substance “wild-type IκBα synthesized in rabbit reticulocyte lysate (from UniProt P25963 1-317)”, the binding result in assay [4] is on record as “binds”.

With “wild-type p53 synthesized in rabbit reticulocyte lysate (from UniProt P04637 1-393)”, in assay [5], the binding entry is reported as “binds”.

Values taken from paper PMC1184076.
